Data as given in patent US20080161289A1, “Fused Thiazole Derivatives Having Affinity for the Histamine H3 Receptor” (Glaxo Group Limited, priority 2005, published 2008).
Some of these results come from one statement about several compounds together.

Protein sequences, listed by entry. Tags and fused reporters are not part of them.
UniProt P35367, whole entry: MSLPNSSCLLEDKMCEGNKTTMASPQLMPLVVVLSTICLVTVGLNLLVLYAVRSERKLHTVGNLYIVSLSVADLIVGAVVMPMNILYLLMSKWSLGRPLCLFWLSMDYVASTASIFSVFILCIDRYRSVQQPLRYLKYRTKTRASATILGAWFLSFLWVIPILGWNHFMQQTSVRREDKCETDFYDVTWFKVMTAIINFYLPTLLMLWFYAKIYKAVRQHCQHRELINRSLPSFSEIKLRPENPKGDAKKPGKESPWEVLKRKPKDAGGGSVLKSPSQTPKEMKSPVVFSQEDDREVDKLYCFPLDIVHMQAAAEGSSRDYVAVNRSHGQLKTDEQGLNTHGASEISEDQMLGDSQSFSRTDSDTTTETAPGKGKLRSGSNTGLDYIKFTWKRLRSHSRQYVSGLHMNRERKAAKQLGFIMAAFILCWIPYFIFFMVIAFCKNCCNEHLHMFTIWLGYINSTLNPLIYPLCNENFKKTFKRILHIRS

Target: T1, human H1 receptor (Homo sapiens, UniProt P35367)
T1 construct: expressed in transfected cells
Experiment: Histamine H1 functional antagonist assay (FLIPR, histamine induced increase in fluorescence)
Format: cell-based
Conditions: hydrochloride salts tested, Cheng-Prusoff equation, averages of a number of experiments

| SMILES | functional pKi (fpKi) |
| --- | --- |
| N#Cc1ccc(N2CCC(c3nc4c(s3)CCN(C3CCC3)CC4)C2)cn1 (racemic) [Example E35, (±)-5-[3-(6-Cyclobutyl-5,6,7,8-tetrahydro-4H-[1,3]thiazolo[4,5-d]azepin-2-yl)-1-pyrrolidinyl]-2-pyridinecarbonitrile] | < 5.6 |
| FC(F)(F)c1ccc(-c2nc3c(s2)CCN(C2CCC2)CC3)cc1 [Example E1, 6-Cyclobutyl-2-[4-(trifluoromethyl)phenyl]-5,6,7,8-tetrahydro-4H-[1,3]thiazolo[4,5-d]azepine] | < 5.6 |
| c1cc(-c2nc3c(s2)CCN(C2CCC2)CC3)ccc1-c1csnn1 [Example E5, 6-Cyclobutyl-2-[4-(1,2,3-thiadiazol-4-yl)phenyl]-5,6,7,8-tetrahydro-4H-[1,3]thiazolo[4,5-d]azepine] | < 5.6 |
| Cc1ccc(C(=O)N2CCC(c3nc4c(s3)CCN(C3CCC3)CC4)CC2)cn1 [Example E8, 6-Cyclobutyl-2-{1-[(6-methyl-3-pyridinyl)carbonyl]-4-piperidinyl}-5,6,7,8-tetrahydro-4H-[1,3]thiazolo[4,5-d]azepine] | < 5.6 |
| O=C(c1ccc(C(F)(F)F)nc1)N1CCC(c2nc3c(s2)CCN(C2CCC2)CC3)CC1 [Example E10, 6-Cyclobutyl-2-(1-{[6-(trifluoromethyl)-3-pyridinyl]carbonyl}-4-piperidinyl)-5,6,7,8-tetrahydro-4H-[1,3]thiazolo[4,5-d]azepine] | < 5.6 |
| N#Cc1ccc(N2CCC(c3nc4c(s3)CCN(C3CCC3)CC4)CC2)cn1 [Example E20, 5-[4-(6-Cyclobutyl-5,6,7,8-tetrahydro-4H-[1,3]thiazolo[4,5-d]azepin-2-yl)-1-piperidinyl]-2-pyridinecarbonitrile] | < 5.6 |
| NC(=O)c1ccc(N2CCC(c3nc4c(s3)CCN(C3CCC3)CC4)CC2)cn1 [Example E22, 5-[4-(6-Cyclobutyl-5,6,7,8-tetrahydro-4H-[1,3]thiazolo[4,5-d]azepin-2-yl)-1-piperidinyl]-2-pyridinecarboxamide] | < 5.6 |
| CN(C)C(=O)c1ccc(N2CCC(c3nc4c(s3)CCN(C3CCC3)CC4)CC2)cn1 [Example E24, 5-[4-(6-Cyclobutyl-5,6,7,8-tetrahydro-4H-[1,3]thiazolo[4,5-d]azepin-2-yl)-1-piperidinyl]-N,N-dimethyl-2-pyridinecarboxamide] | < 5.6 |
| CC(C)CN1CCc2nc(-c3ccc(N4CCN(C)C4=O)cc3)sc2CC1 [Example E32, 1-Methyl-3-{4-[6-(2-methylpropyl)-5,6,7,8-tetrahydro-4H-[1,3]thiazolo[4,5-d]azepin-2-yl]phenyl}-2-imidazolidinone] | < 5.6 |
| N#Cc1cncc(N2CCC(c3nc4c(s3)CCN(C3CCC3)CC4)C2)c1 (stereo not shown) [Example E39, 5-[3-(6-Cyclobutyl-5,6,7,8-tetrahydro-4H-[1,3]thiazolo[4,5-d]azepin-2-yl)-1-pyrrolidinyl]-3-pyridinecarbonitrile] | < 5.6 |
| c1ccc(-c2nc3c(s2)CCN(C2CCC2)CC3)cc1 [Example E42, 6-Cyclobutyl-2-phenyl-5,6,7,8-tetrahydro-4H-[1,3]thiazolo[4,5-d]azepine] | < 5.6 |
| N#Cc1ccc(-c2nc3c(s2)CCN(C2CCC2)CC3)cn1 [Example E49, 5-(6-Cyclobutyl-5,6,7,8-tetrahydro-4H-[1,3]thiazolo[4,5-d]azepin-2-yl)-2-pyridinecarbonitrile] | < 5.6 |
| CNC(=O)c1ccc(-c2nc3c(s2)CCN(C2CCC2)CC3)cn1 [Example E51, 5-(6-Cyclobutyl-5,6,7,8-tetrahydro-4H-[1,3]thiazolo[4,5-d]azepin-2-yl)-N-methyl-2-pyridinecarboxamide] | < 5.6 |
| CN1CCN(c2ccc(-c3nc4c(s3)CCN(C3CCC3)CC4)cn2)C1=O [Example E53, 1-[5-(6-Cyclobutyl-5,6,7,8-tetrahydro-4H-[1,3]thiazolo[4,5-d]azepin-2-yl)-2-pyridinyl]-3-methyl-2-imidazolidinone] | < 5.6 |
| c1cc(N2CCCCC2)ncc1-c1nc2c(s1)CCN(C1CCC1)CC2 [Example E55, 6-Cyclobutyl-2-[6-(1-piperidinyl)-3-pyridinyl]-5,6,7,8-tetrahydro-4H-[1,3]thiazolo[4,5-d]azepine] | < 5.6 |
| c1ncc(-c2nc3c(s2)CCN(C2CCC2)CC3)cn1 [Example E58, 6-Cyclobutyl-2-(5-pyrimidinyl)-5,6,7,8-tetrahydro-4H-[1,3]thiazolo[4,5-d]azepine] | < 5.6 |
| c1nc(N2CCCCC2)ncc1-c1nc2c(s1)CCN(C1CCC1)CC2 [Example E61, 6-Cyclobutyl-2-[2-(1-piperidinyl)-5-pyrimidinyl]-5,6,7,8-tetrahydro-4H-[1,3]thiazolo[4,5-d]azepine] | < 5.6 |
| N#Cc1ccc(-c2nc3c(s2)CCN(C2CCCC2)CC3)nc1 [Example E74, 6-(6-Cyclopentyl-5,6,7,8-tetrahydro-4H-[1,3]thiazolo[4,5-d]azepin-2-yl)-3-pyridinecarbonitrile] | < 5.6 |
| CNC(=O)c1ccc(-c2nc3c(s2)CCN(C2CCC2)CC3)nc1 [Example E76, 6-(6-Cyclobutyl-5,6,7,8-tetrahydro-4H-[1,3]thiazolo[4,5-d]azepin-2-yl)-N-methyl-3-pyridinecarboxamide] | < 5.6 |
| O=C1NCCN1c1ccc(-c2nc3c(s2)CCN(C2CCC2)CC3)cn1 [Example E103, 1-[5-(6-Cyclobutyl-5,6,7,8-tetrahydro-4H-[1,3]thiazolo[4,5-d]azepin-2-yl)-2-pyridinyl]-2-imidazolidinone] | < 5.6 |
| N#Cc1ccc(C(=O)N2CCC(c3nc4c(s3)CCN(C3CCC3)CC4)C2)cc1 (stereo not shown) [Example E105, 4-{[3-(6-Cyclobutyl-5,6,7,8-tetrahydro-4H-[1,3]thiazolo[4,5-d]azepin-2-yl)-1-pyrrolidinyl]carbonyl}benzonitrile] | < 5.6 |
| Cc1cccc(C(=O)N2CCC(c3nc4c(s3)CCN(C3CCC3)CC4)C2)n1 (stereo not shown) [Example E106, 6-Cyclobutyl-2-{1-[(6-methyl-2-pyridinyl)carbonyl]-3-pyrrolidinyl}-5,6,7,8-tetrahydro-4H-[1,3]thiazolo[4,5-d]azepine] | < 5.6 |
| c1cc(N2CCCC2)ncc1-c1nc2c(s1)CCN(C1CCC1)CC2 [Example E107, 6-Cyclobutyl-2-[6-(1-pyrrolidinyl)-3-pyridinyl]-5,6,7,8-tetrahydro-4H-[1,3]thiazolo[4,5-d]azepine] | < 5.6 |
| c1cc(N2CCOCC2)ncc1-c1nc2c(s1)CCN(C1CCC1)CC2 [Example E108, 6-Cyclobutyl-2-[6-(4-morpholinyl)-3-pyridinyl]-5,6,7,8-tetrahydro-4H-[1,3]thiazolo[4,5-d]azepine] | < 5.6 |
| CNC(=O)c1cnc(-c2nc3c(s2)CCN(C2CCC2)CC3)cn1 [Example E109, 5-(6-Cyclobutyl-5,6,7,8-tetrahydro-4H-[1,3]thiazolo[4,5-d]azepin-2-yl)-N-methyl-2-pyrazinecarboxamide] | < 5.6 |
| c1cc(N2CCOCC2)ccc1-c1nc2c(s1)CCN(C1CCC1)CC2 [Example E110, 6-Cyclobutyl-2-[4-(4-morpholinyl)phenyl]-5,6,7,8-tetrahydro-4H-[1,3]thiazolo[4,5-d]azepine] | < 5.6 |
| CN1CCOc2cc(-c3nc4c(s3)CCN(C3CCC3)CC4)ccc21 [Example E111, 6-Cyclobutyl-2-(4-methyl-3,4-dihydro-2H-1,4-benzoxazin-7-yl)-5,6,7,8-tetrahydro-4H-[1,3]thiazolo[4,5-d]azepine] | < 5.6 |
| N#Cc1cccc(-c2nc3c(s2)CCN(C2CCC2)CC3)c1 [Example E112, 3-(6-Cyclobutyl-5,6,7,8-tetrahydro-4H-[1,3]thiazolo[4,5-d]azepin-2-yl)benzonitrile] | < 5.6 |
